{"source": "patent US20240191211A1", "about": "“BIOLUMINESCENCE-TRIGGERED PHOTOCATALYTIC LABELING” (Promega Corporation, priority 2022, published 2024)", "experiment": "Excitation and emission profiles of catalysts", "format": "physicochemical", "details": "200 μM catalysts in 100% DMSO", "note": "At least one structure is not confirmed: it was looked up by name or label, or the drawing left a doubt.", "data": [{"smiles": "CC(=O)Oc1ccc2c(c1Br)Oc1c(ccc(OC(C)=O)c1Br)C21OC(=O)c2cc(C(=O)NCCOCCOCCOCCOC(=O)NCCOCCOCCCCCCCl)ccc21", "note": "[PS-9167, 4′,5′-dibromo-5-((26-chloro-13-oxo-3,6,9,12,17,20-hexaoxa-14-azahexacosyl)carbamoyl)-3-oxo-3H-spiro[isobenzofuran-1,9′-xanthene]-3′,6′-diyl diacetate]", "values": [{"measurement": "Em/nm", "value": 543, "unit": "nm"}, {"measurement": "Ex/nm", "value": 450, "unit": "nm"}]}]}
